Assay results as given in patent publication US20060073145A1.
These are yes or no findings as the source states them, for the method shown. Some binding calls cover weakened binding; strength is not graded here.

Key:
[1] = molecular target: T1, recombinant human soluble CD14 (clone 523) (human) (UniProt P08571); experiment: ELISA on sCD14-coated plate
T1 sequence (looked up): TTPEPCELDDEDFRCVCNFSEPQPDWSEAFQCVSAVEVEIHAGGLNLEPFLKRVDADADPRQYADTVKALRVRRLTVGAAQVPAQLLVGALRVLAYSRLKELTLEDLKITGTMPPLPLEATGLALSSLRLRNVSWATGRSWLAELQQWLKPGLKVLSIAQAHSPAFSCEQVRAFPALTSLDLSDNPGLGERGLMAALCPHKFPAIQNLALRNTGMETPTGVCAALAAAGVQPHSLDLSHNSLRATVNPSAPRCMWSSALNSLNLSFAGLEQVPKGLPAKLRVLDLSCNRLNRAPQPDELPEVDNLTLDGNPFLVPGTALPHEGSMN

[2] = molecular target: T1, recombinant human soluble CD14 (clone 523) (human); experiment: ELISA screening

B1: monoclonal antibody 18E12 (antibody, V domains shown)
VH: PPLESGPGLVAPSQSLSITCTVSGFSLTNYDISWIRQPPGKGLEWLGVIWTSGGTNYNSAFMSRLSITKDNSKSQVFLKMNGLQTDDTGISYCVRGDGNFYLYNFDYWGQGTTLTVSS
VL: MTQTPSSLSASLGDRVTISCRASQDIKNYLNWYQQGPGGTVKVLIYYTSRLHSGVPSRFSGSGSGTDYSLTISNLEQEDFATYFCQRGDTLPWTFGGGTKLEIKT
**Q.** With B1 as the binder, how does the binding [1] read?
**A.** binds

**Q.** What about the binding [2] of the same binder?
**A.** binds
